# Assay results taken from the supplement of paper PMC4840960.
# Structures can show the parent of a compound that is named as a salt. ± gives the standard deviation of the averaged measurements. The list shows a part of the results. Part of the spread comes from offsets between plates or batches.
# System: E18 rat cortical neuron-glia co-culture
# Experiment: total nuclei (DAPI) / Olig2+ nuclei (ratio); higher = more depletion of OPC/OL lineage cells
# Conditions: 1 µM; treatment time: 8 days (DIV5-DIV13)
row,Compound,total nuclei
1,CC(=O)N1CCN(c2ccc(OCC3COC(Cn4ccnc4)(c4ccc(Cl)cc4Cl)O3)cc2)CC1 (stereo not given) [Ketoconazole],4.53
2,C[C@@H]1C[C@H]2[C@@H]3C[C@H](F)C4=CC(=O)C(Cl)=C[C@]4(C)[C@@]3(F)[C@@H](O)C[C@]2(C)[C@@]1(O)C(=O)CO [Halometasone hydrate],4.18
3,CN1CCN(CCCN2c3ccccc3Sc3ccc(C(F)(F)F)cc32)CC1 [Trifluoperazine],4.72
4,NS(=O)(=O)c1cc2c(cc1Cl)N=CNS2(=O)=O [Chlorothiazide],4.1
5,CC(C)OC(=O)CCC/C=C\C[C@@H]1[C@@H](CC[C@@H](O)CCc2ccccc2)[C@H](O)C[C@@H]1O [Latanoprost],2.95
6,COc1cc(C)nc(-n2nc(C)cc2OC)n1 [Epirizole],2.8
7,NS(=O)(=O)c1cc2c(cc1Cl)NCNS2(=O)=O [Hydrochlorothiazide],3.77
8,CN1CCN(CCCN2c3ccccc3Sc3ccc(Cl)cc32)CC1 [Prochlorperazine],5
9,CC(Cc1ccccc1)(NC(=O)CN)c1ccccc1 (stereo not given) [Remacemide],2.64
10,CNC(=C[N+](=O)[O-])NCCSCc1csc(CN(C)C)n1 [Nizatidine],4.95
11,O=[N+]([O-])c1cccc2cn[nH]c12 [7-Nitroindazole],2.85
12,COc1cc(Cc2cnc(N)nc2N)cc(OC)c1OC [Trimethoprim],3.98

# Same assay, conditions: 5 µM; treatment time: 8 days (DIV5-DIV13)
row,Compound,total nuclei
1,CO[C@H]1/C=C/O[C@@]2(C)Oc3c(C)c(O)c4c(c3C2=O)C2=NC3(CCN(CC(C)C)CC3)NC2=C(NC(=O)/C(C)=C\C=C\[C@H](C)[C@H](O)[C@@H](C)[C@@H](O)[C@@H](C)[C@H](OC(C)=O)[C@@H]1C)C4=O [Rifabutin],3.85 ± 0.92
2,CC1Cc2ccccc2N1NC(=O)c1ccc(Cl)c(S(N)(=O)=O)c1 (stereo not given) [Indapamide],2.7
3,COc1cc(OC)c(C(=O)CCCN2CCCC2)c(OC)c1 [Buflomedil],4.8
4,C[C@H](CS)C(=O)N1CCC[C@H]1C(=O)O [Captopril],2.9
5,CCC(C)(C)C(=O)O[C@H]1C[C@@H](C)C=C2C=C[C@H](C)[C@H](CC[C@@H]3C[C@@H](O)CC(=O)O3)[C@H]21 [Simvastatin],3.9
6,CN(C)[C@@H]1C(O)=C(C(=O)NCN2CCCC2)C(=O)[C@@]2(O)C(O)=C3C(=O)c4c(O)cccc4[C@@](C)(O)[C@H]3C[C@@H]12 [Rolitetracycline],2.7
7,CC(=O)OCC(CCn1cnc2cnc(N)nc21)COC(C)=O [Famciclovir],4.5
8,CC(C)c1ccc2oc3nc(N)c(C(=O)O)cc3c(=O)c2c1 [Amlexanox],3.2
9,OC(CCN1CCCCC1)(c1ccccc1)C1CCCCC1 (stereo not given) [Trihexyphenidyl],4.1
10,Clc1ccccc1C(c1ccccc1)(c1ccccc1)n1ccnc1 [Clotrimazole],3.5
11,CN(C)CCc1c[nH]c2ccc(Cn3cncn3)cc12 [Rizatriptan],2.7
12,C=C1/C(=C\C=C2/CCC[C@]3(C)[C@@H]([C@H](C)/C=C/[C@@H](O)C4CC4)CC[C@@H]23)C[C@@H](O)C[C@@H]1O [Calcipotriene],11.8
13,CCCC(=O)O[C@]1(C(=O)COC(=O)CC)CC[C@H]2[C@@H]3CCC4=CC(=O)CC[C@]4(C)[C@H]3[C@@H](O)C[C@@]21C [Hydrocortisone buteprate],2.9
14,CC(N/C(=N\C#N)Nc1ccncc1)C(C)(C)C (stereo not given) [Pinacidil],3.1
15,CC(=O)Oc1ccccc1C(=O)Nc1ncc([N+](=O)[O-])s1 [Nitazoxanide],3.9
16,COC1=C(OC)C(=O)C(CCCCCCCCCCO)=C(C)C1=O [Idebenone],> 40
17,CC(C)NCC(O)COc1cccc2[nH]ccc12 (stereo not given) [Pindolol],4.4
18,CC(C)NCC(O)COc1ccc(CC(N)=O)cc1 (stereo not given) [Atenolol],2.8
19,Oc1ccc(/C=C/c2cc(O)cc(O)c2)cc1 [Resveratrol],3.2

row,Compound,total nuclei
1,CCC1=C[C@@H]2CN(C1)Cc1c([nH]c3ccccc13)[C@@](C(=O)OC)(c1cc3c(cc1OC)N(C)[C@H]1[C@@](O)(C(=O)OC)[C@H](OC(C)=O)[C@]4(CC)C=CCN5CC[C@]31[C@@H]54)C2 [Vinorelbine],39.8
2,CC1=C(/C=C/C(C)=C/C=C/C(C)=C\C(=O)O)C(C)(C)CCC1 [Isotretinoin],4.3
3,CC(C)Cc1ccc(C(C)C(=O)O)cc1 (stereo not given) [Ibuprofen],3.7
4,COC(=O)Nc1nc2cc(C(=O)c3ccccc3)ccc2[nH]1 [Mebendazole],33.8
5,c1ccc2c(c1)CCCC2C1=NCCN1 (stereo not given) [Tyzine],4
6,Cc1c(C(=O)NN2CCCCC2)nn(-c2ccc(Cl)cc2Cl)c1-c1ccc(I)cc1,> 40
7,Cc1ccc(NC(=O)c2ccc(CN3CCN(C)CC3)cc2)cc1Nc1nccc(-c2cccnc2)n1 [Imatinib mesylate],6.6
8,CC(=O)N1CCN(c2ccc(OCC3COC(Cn4ccnc4)(c4ccc(Cl)cc4Cl)O3)cc2)CC1 (stereo not given) [Ketoconazole],5.7
9,C[C@@H]1C[C@H]2[C@@H]3C[C@H](F)C4=CC(=O)C(Cl)=C[C@]4(C)[C@@]3(F)[C@@H](O)C[C@]2(C)[C@@]1(O)C(=O)CO [Halometasone hydrate],3.9
10,CN1CCN(CCCN2c3ccccc3Sc3ccc(C(F)(F)F)cc32)CC1 [Trifluoperazine],> 40
11,NS(=O)(=O)c1cc2c(cc1Cl)N=CNS2(=O)=O [Chlorothiazide],5.9
12,CC(C)OC(=O)CCC/C=C\C[C@@H]1[C@@H](CC[C@@H](O)CCc2ccccc2)[C@H](O)C[C@@H]1O [Latanoprost],3.1
13,COc1cc(C)nc(-n2nc(C)cc2OC)n1 [Epirizole],2.9
14,NS(=O)(=O)c1cc2c(cc1Cl)NCNS2(=O)=O [Hydrochlorothiazide],3.6
15,CN1CCN(CCCN2c3ccccc3Sc3ccc(Cl)cc32)CC1 [Prochlorperazine],5.2
16,CC(Cc1ccccc1)(NC(=O)CN)c1ccccc1 (stereo not given) [Remacemide],2.7
17,CNC(=C[N+](=O)[O-])NCCSCc1csc(CN(C)C)n1 [Nizatidine],4.8
18,O=[N+]([O-])c1cccc2cn[nH]c12 [7-Nitroindazole],2.8
19,COc1cc(Cc2cnc(N)nc2N)cc(OC)c1OC [Trimethoprim],4.1
